Measurements from publication PMC6629890.

Legend:
[1] = target: T1, glyceraldehyde-3-phosphate dehydrogenase, endogenous in P. lutzii protein extract (Paracoccidioides lutzii (endogenous in P. lutzii cells)) (UniProt Q8X1X3); assay: native gel or EMSA; Blue Native PAGE (5-18% gradient, 12 C, pH 7.0) of 300 ug water-soluble proteins of P. lutzii mycelium, mycelium-to-yeast transition and yeast; multiprotein complex with GAPDH excised, in-gel digestion, NanoLC-MSE
T1 sequence: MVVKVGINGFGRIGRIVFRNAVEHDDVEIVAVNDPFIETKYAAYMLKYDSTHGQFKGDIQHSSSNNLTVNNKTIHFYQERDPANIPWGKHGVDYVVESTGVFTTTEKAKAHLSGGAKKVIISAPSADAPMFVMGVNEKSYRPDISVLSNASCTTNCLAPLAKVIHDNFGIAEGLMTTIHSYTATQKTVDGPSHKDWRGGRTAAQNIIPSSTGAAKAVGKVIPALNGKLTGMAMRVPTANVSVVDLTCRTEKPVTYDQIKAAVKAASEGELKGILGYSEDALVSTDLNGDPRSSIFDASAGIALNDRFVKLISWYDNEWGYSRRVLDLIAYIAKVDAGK

[2] = target: T1, glyceraldehyde-3-phosphate dehydrogenase, endogenous in P. lutzii protein extract (Paracoccidioides lutzii (endogenous in P. lutzii cells)); assay: co-IP; target antibodies on protein A sepharose 4B, 3 h with 3 mg/mL total P. lutzii protein extract; washes 10 mM tris pH 7.4, 1% Triton, 1 mM EDTA; eluted with 0.2 M glycine pH 2.6; SDS-PAGE and Western blot

Substance	binding [1]	binding [2]
acetyl-CoA acetyltransferase (enzyme)	binds	
aldehyde dehydrogenase (enzyme)	binds	
DNA damage checkpoint protein rad24	binds	
2-methylcitrate dehydratase (enzyme)	binds	
alcohol dehydrogenase (enzyme)	binds	
HSP90	binds	
enolase (enzyme)	binds	binds
triose phosphate isomerase (enzyme)	binds	binds
2-methylcitrate synthase (enzyme)	binds	binds
isocitrate lyase (enzyme)	binds	binds
NAD(P)H:quinone oxidoreductase type IV (enzyme)	binds	
protein 14-3-3	binds	
enoyl-CoA hydratase (enzyme)	binds	

No constants are given. Whether binding was seen depends on the method and setting. Binding can be weak; no strength is given. For some assays here: Binding seen in cells or lysates may run through a third protein.
